Results reported in PMC13349382.
Numbering of substitutions follows the chain as printed. Results are given in words; binding and its absence hold for the method and conditions named. Binding seen in cells or lysates may run through a third protein. These calls come from enrichment with a bait or labelling near it, and not all partners need be listed. For some assays here: No binding means not detected with the bait.

Sequences of proteins named here, by UniProt entry; tags and fusion partners are left off.
UniProt P63101: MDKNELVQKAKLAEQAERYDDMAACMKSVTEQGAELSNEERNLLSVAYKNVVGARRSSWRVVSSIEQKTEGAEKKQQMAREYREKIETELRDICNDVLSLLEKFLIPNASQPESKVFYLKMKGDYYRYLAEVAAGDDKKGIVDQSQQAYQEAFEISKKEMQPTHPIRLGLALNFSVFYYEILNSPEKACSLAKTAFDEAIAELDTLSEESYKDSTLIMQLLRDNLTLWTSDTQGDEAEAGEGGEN
UniProt P68510: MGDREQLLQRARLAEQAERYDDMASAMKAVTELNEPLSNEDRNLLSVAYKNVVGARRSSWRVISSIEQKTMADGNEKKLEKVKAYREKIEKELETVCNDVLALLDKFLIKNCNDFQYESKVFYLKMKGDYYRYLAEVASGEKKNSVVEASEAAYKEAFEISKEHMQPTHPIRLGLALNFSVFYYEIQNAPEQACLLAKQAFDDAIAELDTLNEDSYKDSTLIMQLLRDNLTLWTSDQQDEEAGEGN
UniProt P23242: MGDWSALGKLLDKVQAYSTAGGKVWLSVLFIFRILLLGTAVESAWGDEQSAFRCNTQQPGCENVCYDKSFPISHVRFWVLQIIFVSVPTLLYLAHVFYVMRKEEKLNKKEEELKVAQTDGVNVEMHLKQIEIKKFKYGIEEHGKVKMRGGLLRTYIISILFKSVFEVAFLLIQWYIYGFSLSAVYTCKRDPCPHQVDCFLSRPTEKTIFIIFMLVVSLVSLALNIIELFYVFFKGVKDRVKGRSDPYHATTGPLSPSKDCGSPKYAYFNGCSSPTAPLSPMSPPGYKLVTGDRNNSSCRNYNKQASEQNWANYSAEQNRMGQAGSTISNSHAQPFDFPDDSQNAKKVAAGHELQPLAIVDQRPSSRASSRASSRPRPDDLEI
UniProt P63168: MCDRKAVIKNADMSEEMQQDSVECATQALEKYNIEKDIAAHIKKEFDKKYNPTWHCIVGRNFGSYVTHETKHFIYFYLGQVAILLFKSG
UniProt P09405: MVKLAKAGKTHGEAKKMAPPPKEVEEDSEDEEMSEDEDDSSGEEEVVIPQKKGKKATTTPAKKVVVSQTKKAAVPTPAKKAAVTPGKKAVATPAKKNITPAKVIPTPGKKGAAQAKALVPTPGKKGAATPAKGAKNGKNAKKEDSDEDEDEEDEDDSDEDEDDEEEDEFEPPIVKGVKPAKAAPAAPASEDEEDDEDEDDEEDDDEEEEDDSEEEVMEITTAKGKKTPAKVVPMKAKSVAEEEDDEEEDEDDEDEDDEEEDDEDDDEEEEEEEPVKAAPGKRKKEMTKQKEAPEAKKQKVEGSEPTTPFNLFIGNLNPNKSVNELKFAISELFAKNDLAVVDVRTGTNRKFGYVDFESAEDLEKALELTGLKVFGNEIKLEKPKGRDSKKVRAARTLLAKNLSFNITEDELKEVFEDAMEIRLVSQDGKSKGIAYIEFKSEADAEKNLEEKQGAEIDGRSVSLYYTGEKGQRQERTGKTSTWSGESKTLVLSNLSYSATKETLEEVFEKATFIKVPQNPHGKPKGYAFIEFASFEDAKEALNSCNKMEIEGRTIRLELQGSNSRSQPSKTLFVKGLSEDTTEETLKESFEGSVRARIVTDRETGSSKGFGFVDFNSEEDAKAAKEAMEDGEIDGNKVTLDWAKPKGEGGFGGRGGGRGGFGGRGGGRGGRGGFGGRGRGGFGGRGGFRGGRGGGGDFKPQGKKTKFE
UniProt P62259: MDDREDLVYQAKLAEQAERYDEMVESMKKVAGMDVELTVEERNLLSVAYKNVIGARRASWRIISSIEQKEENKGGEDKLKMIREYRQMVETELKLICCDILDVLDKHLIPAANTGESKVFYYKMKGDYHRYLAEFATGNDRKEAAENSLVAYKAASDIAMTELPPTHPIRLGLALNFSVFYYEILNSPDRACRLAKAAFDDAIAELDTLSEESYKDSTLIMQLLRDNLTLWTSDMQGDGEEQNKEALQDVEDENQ
UniProt Q61879: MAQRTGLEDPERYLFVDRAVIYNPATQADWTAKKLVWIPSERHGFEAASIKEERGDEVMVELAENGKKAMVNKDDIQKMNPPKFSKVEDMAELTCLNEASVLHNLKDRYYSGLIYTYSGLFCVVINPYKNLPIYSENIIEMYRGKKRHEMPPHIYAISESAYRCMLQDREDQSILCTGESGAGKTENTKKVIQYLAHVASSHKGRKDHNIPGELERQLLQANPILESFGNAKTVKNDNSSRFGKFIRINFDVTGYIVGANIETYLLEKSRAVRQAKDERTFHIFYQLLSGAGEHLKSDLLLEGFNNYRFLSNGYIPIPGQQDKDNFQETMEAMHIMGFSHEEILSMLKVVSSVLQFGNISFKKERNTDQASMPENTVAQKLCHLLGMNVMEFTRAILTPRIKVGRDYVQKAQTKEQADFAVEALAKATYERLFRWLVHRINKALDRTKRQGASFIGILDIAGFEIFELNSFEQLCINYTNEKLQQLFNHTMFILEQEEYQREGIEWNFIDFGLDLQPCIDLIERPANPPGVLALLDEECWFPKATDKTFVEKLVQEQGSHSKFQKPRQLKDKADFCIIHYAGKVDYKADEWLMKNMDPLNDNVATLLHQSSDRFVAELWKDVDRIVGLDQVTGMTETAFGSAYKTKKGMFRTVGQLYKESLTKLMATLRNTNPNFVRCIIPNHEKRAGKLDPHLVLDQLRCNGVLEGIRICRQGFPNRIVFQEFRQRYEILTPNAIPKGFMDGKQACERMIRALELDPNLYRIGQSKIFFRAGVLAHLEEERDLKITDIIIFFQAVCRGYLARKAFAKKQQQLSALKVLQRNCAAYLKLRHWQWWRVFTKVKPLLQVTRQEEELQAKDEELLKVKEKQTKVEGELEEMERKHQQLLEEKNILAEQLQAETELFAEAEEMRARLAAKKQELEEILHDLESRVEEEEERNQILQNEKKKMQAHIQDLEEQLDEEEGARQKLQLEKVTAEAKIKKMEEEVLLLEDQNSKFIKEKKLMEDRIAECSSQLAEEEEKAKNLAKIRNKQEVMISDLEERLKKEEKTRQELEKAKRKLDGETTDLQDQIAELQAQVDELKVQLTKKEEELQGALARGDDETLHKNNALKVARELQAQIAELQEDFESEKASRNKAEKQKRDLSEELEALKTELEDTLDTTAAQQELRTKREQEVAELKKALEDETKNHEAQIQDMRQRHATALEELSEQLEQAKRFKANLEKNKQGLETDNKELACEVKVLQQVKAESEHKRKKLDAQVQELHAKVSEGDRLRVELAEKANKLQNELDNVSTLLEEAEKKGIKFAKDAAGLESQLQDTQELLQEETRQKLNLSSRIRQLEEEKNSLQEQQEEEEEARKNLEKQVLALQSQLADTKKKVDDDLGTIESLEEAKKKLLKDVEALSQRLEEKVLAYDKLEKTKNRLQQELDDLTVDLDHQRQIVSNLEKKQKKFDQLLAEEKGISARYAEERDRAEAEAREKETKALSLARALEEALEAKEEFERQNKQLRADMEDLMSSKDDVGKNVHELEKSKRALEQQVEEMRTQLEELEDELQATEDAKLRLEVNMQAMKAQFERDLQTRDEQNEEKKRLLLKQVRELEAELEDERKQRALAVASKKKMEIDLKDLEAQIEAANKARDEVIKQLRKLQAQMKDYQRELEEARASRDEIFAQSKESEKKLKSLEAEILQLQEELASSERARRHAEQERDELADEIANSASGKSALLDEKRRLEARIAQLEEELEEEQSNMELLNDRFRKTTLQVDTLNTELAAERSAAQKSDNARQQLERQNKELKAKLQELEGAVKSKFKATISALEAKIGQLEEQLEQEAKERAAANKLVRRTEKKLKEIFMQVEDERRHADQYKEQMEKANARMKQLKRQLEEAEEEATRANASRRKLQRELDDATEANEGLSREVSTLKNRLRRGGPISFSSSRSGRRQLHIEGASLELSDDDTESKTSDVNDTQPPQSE

B1: 14-3-3 protein theta (protein, UniProt P68254 1-245)
chain: MEKTELIQKAKLAEQAERYDDMATCMKAVTEQGAELSNEERNLLSVAYKNVVGGRRSAWRVISSIEQKTDTSDKKLQLIKDYREKVESELRSICTTVLELLDKYLIANATNPESKVFYLKMKGDYFRYLAEVACGDDRKQTIENSQGAYQEAFDISKKEMQPTHPIRLGLALNFSVFYYEILNNPELACTLAKTAFDEAIAELDTLNEDSYKDSTLIMQLLRDNLTLWTSDSAGEECDAAEGAEN
B2: Sfrs10 protein (protein, UniProt P62996 1-288)
chain: MSDSGEQNYGERESRSASRSGSAHGSGKSARHTPARSRSKEDSRRSRSKSRSRSESRSRSRRSSRRHYTRSRSRSRSHRRSRSRSYSRDYRRRHSHSHSPMSTRRRHVGNRANPDPNCCLGVFGLSLYTTERDLREVFSKYGPIADVSIVYDQQSRRSRGFAFVYFENVDDAKEAKERANGMELDGRRIRVDFSITKRPHTPTPGIYMGRPTYGSSRRRDYYDRGYDRGYDDRDYYSRSYRGGGGGGGGWRAAQDRDQIYRRRSPSPYYSRGGYRSRSRSRSYSPRRY
B3: 14-3-3 protein gamma (protein, UniProt P61982 1-247)
chain: MVDREQLVQKARLAEQAERYDDMAAAMKNVTELNEPLSNEERNLLSVAYKNVVGARRSSWRVISSIEQKTSADGNEKKIEMVRAYREKIEKELEAVCQDVLSLLDNYLIKNCSETQYESKVFYLKMKGDYYRYLAEVATGEKRATVVESSEKAYSEAHEISKEHMQPTHPIRLGLALNYSVFYYEIQNAPEQACHLAKTAFDDAIAELDTLNEDSYKDSTLIMQLLRDNLTLWTSDQQDDDGGEGNN

Biological target: T1, EML3 TQT86AAA of homozygous Eml3 TQT86AAA knock-in mice (mouse (endogenous in placenta lysate)) (UniProt Q8VC03)
T1 sequence: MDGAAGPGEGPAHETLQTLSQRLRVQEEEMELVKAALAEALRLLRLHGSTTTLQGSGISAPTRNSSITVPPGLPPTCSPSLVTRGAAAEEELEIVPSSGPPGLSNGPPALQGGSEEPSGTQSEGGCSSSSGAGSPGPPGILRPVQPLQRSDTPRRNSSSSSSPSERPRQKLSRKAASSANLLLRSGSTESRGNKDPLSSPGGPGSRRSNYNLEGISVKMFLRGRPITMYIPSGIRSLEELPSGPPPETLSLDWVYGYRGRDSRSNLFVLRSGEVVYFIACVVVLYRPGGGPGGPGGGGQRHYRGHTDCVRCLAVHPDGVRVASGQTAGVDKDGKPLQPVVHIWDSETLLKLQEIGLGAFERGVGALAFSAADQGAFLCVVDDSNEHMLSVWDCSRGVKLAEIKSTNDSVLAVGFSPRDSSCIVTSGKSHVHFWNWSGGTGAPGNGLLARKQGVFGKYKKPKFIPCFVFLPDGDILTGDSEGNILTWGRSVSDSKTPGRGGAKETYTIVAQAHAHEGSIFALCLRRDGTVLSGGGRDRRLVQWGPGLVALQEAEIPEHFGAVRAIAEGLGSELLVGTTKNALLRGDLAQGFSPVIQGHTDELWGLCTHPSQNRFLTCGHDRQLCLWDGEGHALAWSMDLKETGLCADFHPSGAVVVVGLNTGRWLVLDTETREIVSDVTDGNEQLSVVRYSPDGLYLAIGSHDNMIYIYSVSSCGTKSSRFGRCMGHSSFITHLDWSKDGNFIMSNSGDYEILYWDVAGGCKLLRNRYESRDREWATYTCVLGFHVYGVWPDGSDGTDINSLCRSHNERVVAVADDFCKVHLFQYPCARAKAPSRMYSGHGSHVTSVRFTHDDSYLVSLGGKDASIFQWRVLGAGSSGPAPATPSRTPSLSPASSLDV
Experiment: affinity purification with mass spectrometry; immunoprecipitation with affinity-purified rabbit polyclonal anti-EML3 C-terminal antibody on anti-rabbit IgG Dynabeads from 1.5 mg mouse tissue lysate (E15.5 whole embryo, E12.5 embryo head, E12.5 placenta; 0.5% NP-40 lysis buffer), overnight 4 C; on-bead trypsin digestion; Eml3-/- tissue or control IgG as controls

Molecule | binding
14-3-3 protein zeta/delta (from UniProt P63101 1-245) | binds
14-3-3 protein eta (from UniProt P68510 1-246) | binds
Gap junction alpha-1 protein (from UniProt P23242 1-382) | binds
Dynein light chain 1, cytoplasmic (from UniProt P63168 1-89) | no binding
B1 | binds

Biological target: T2, Echinoderm microtubule-associated protein-like 3 (mouse (endogenous in embryo and placenta lysates)) (UniProt Q8VC03)
T2 sequence: T1 sequence with A86T, A87Q, A88T
Experiment: as above

Molecule | binding
Integrin alpha-5 | binds
Nucleolin (from UniProt P09405 1-707) | binds
14-3-3 protein epsilon (from UniProt P62259 1-255) | binds
Myosin-10 (from UniProt Q61879 1-1976) | binds
Fibrillin-2 (from UniProt Q61555 78-2773) | binds
14-3-3 protein zeta/delta (from UniProt P63101 1-245) | binds
14-3-3 protein eta (from UniProt P68510 1-246) | binds
Gap junction alpha-1 protein (from UniProt P23242 1-382) | binds
Dynein light chain 1, cytoplasmic (from UniProt P63168 1-89) | binds
B2 | binds
B1 | binds
B3 | binds
